{"source": "patent US20240181000A1", "about": "“LGG-DERIVED PEPTIDES AND METHODS OF USE THEREOF” (Ohio State Innovation Foundation, priority 2021, published 2024)", "key": {"[1]": {"system": "Salmonella enterica subsp. enterica serovar Typhimurium LT2 (ST)", "assay": "Anti-Salmonella growth inhibition and MIC", "format": "cell-based", "experimental": "Primary screening for anti-Salmonella activity of peptides: The inhibitory effect of the peptides was accessed as described previously. ST was grown overnight and adjusted to 5×10^5 CFU/mL; 100 microliters of this measured concentration was placed into the wells of a 96 well plate. Peptides 1-6 were added to the well at 12 mM concentration and plate was incubated in a TECAN Sunrise™ absorbance microplate reader at 37° C. with kinetic absorbance measurements taken every 30 minutes for 12 h. The growth inhibitory activity was calculated with the formula (OD600 DMSO treated well-OD600 peptide treated well)/OD600 DMSO treated well×100%. DMSO treated, Salmonella challenged wells and sterile media with no Salmonella challenge were used as controls. This experiment was done twice to ensure the accuracy and reproducibility of the results.\n(§1) MIC was determined by selecting peptide concentration at which there is no increased growth (no increase in OD), given indication of no ST growth. An independent repeat experiment was conducted.\nHeat and protease tolerance of peptides: P1, P2, and P4 were heated for 6 minutes at 86° C. or treated with protease proteinase K, 200 μg/mL at 50° C. for 30 minutes. After which, the treated and/or heated peptides at their respective MICs were evaluated in the inhibition assay with Salmonella. The protocol from above was repeated in the Tecan with the same controls. […]"}, "APEC [2]": {"system": "APEC", "assay": "Alanine scanning SAR, anti-APEC activity", "format": "cell-based, E. coli", "from_the_text": "Structure-activity relationship (SAR) study: To identify the crucial amino acid residues required for the peptide activity, alanine scanning libraries of peptides (P1, P2, and P3) (www.genscript.com/alanine_scanning.html) were synthesized (Table 22) and tested for anti-APEC activity as described above. The anti-APEC activity of peptide analogues (SEQ ID NO: 67-84) was then compared with the original peptide and the relative importance (% growth inhibition by peptide analogue/% growth inhibition by original peptide×100%) of each AA residue of the peptide was determined."}, "APEC [3]": {"system": "APEC", "format": "in vivo, chickens", "details": "50 mg/L in drinking water, 7 dpi", "from_the_text": "FIGS. 57A-57D show the APEC load of chickens (at 7 dpi [days post infection]) treated with either peptides P-1 or P-2."}, "[4]": {"system": "Salmonella enterica subsp. enterica serovar Enteritidis (SE)", "format": "cell-based", "details": "No treatment", "experimental": "as §1\nHeat and protease tolerance of peptides: P1, P2, and P4 were heated for 6 minutes at 86° C. or treated with protease proteinase K, 200 μg/mL at 50° C. for 30 minutes. After which, the treated and/or heated peptides at their respective MICs were evaluated in the inhibition assay with Salmonella. The protocol from above was repeated in the Tecan with the same controls.\nTo analyze the perceived efficacy of arginine and lysine substitutes reported in previous studies, specific amino acid residues in P1 and P2 were replaced with lysine or arginine to test if the alliterations enhanced anti-Salmonella (ST and SE) activity. The MICs of the arginine or lysine substituted peptides ([…] (SEQ ID NO:37), […] (SEQ ID NO:38), […] (SEQ ID NO:39), KDENK (SEQ ID NO:41), PDEKK (SEQ ID NO:42), KDEKK (SEQ ID NO:43), KHTAPK (SEQ ID NO:45)) were determined as described early. Two independent experiments were conducted to ensure accuracy."}, "ST membrane": {"system": "ST membrane", "assay": "Transmission electron microscopy", "format": "cell-based, Salmonella enterica", "details": "10×MIC, 3 h", "experimental": "ST was treated with 10× peptide MIC and incubated for 3 h.\nTransmission electron microscopy: To further visually analyze the inhibitory effects of P1 and P2 on ST, transmission electron microscopy (TEM) was performed as described previously. […] After which, cells were fixed overnight with 3% glutaraldehyde and 2% paraformaldehyde at room temperature. Cells were then washed and postfixed with 1% osmium tetroxide (OsO4). The washed cells were then dehydrated, with graded ethanol, and embedded with Embed 812 kit (Electron Microscopy Sciences, Pa). Ultrathin (70 nm) sections were prepared on formvar-carbon coated grids and stained with uranyl acetate and lead citrate. Untreated ST was used as a control. TEM was conducted at MCIC using the Hitachi H-7500 microscope."}, "cecal microbiota": {"system": "cecal microbiota", "assay": "Cecal microbiome analysis (peptides, ST infected)", "format": "in vivo, chickens", "details": "genus", "experimental": "Cecal microbiome analysis: To evaluate the role P1, P2, and P4 (50 mg/kg) treatment on the cecal microbiome of chickens, 16S rRNA based metagenomic study was conducted as previously described. DNA was extracted from approximately 0.2 g of cecal content using PureLink™ Microbiome DNA Purification Kit (Thermofisher Scientific). After which, RNA was removed with the treatment of RNase A (2 μL of 100 mg/mL solution per sample: Qiagen). NanoDrop 2000c Spectrophotometer (ThermoFisher Scientific) was used to check the quality and measure the quantity of the DNA. The extracted DNA was used in 16S rRNA V4-V5 sequencing done at MCIC (mcic.osu.edu/genomics/illumina-sequencing). Amplicon libraries were prepared using IFU KAPA HiFi HotStart ReadyMixPCR Kit (Roche). PCR products were cleaned using Agencourt AMPure XP beads (BECKMAN COULTER Life Sciences). Nextera XT DNA Library Preparation Kit (Illumina) was used to generate Illumina library and sequencing done with Illumina MiSeq platform generating paired end 300-bp reads. QIIME 2 (Quantitative Insights Into Microbial Ecology) bioinformatics platform (qiime2.org/) was used to conduct metagenomic analysis. Quality control of the raw reads was performed using FastQC 0.11.8 (Babraham Bioinformatics). Trimmomatic-0.33 was used to trim the adaptor and other Illumina-specific sequences (www.usadellab.org/cms/?page=trimmomatic). After which trimmed sequences (fastq.gz) were then imported into QIIME 2 as a manifest file format (PairedEndManifestPhred33V2). DADA2 was then used for the feature table construction and additional filtering of sequences. Taxonomic analysis was performed using Naive Bayes classifiers trained on the Silva 132 99% OTUs (silva-132-99-nb-classifier.qza) database. Phylogenetic diversity was analyzed using align-to-tree-mafft-fasttree pipeline. Additionally, Shannon's diversity index (alpha diversity) and Bray-Curtis distance (beta diversity) were analyzed using core-metrics-phylogenetic pipeline (docs.qiime2.org/2019.7/tutorials/moving-pictures/). Alpha and beta diversity statistical significance were analyzed using Kruskal-Wallis and PERMANOVA tests (P<0.05), respectively. The statistical difference (P<0.05) in the taxonomic composition between the groups was determined using Mann Whitney Test."}}, "note": "At least one peptide structure holds a part that was inferred or is arguable (an end, a ring closure or a residue). Marks after values point to notes of the source that are not given here. Some of these results come from one statement about several compounds together. No end group written: not given here."}
{"substance": "VHTAPK [Peptide P3, VHTAPK]", "values": [{"measurement": "Inhibition of ST growth", "setting": "[1]; dose response 6-18 mM", "value": "Neither P3 nor P4 completely inhibited ST"}, {"measurement": "Relative importance of V, H, T, P and K in P3", "setting": "APEC [2]", "value": "> 50", "unit": "%"}]}
{"substance": "NPSRQERR [Peptide P1]", "values": [{"measurement": "Reduction of APEC colonization in cecum", "setting": "APEC [3]", "value": 1.089, "unit": "log CFU/gm"}, {"measurement": "MIC against SE", "setting": "[4]", "value": 18, "unit": "mM"}, {"measurement": "ST membrane in TEM", "setting": "ST membrane", "value": "disruption of the membrane characterized by sloughed or flaccid appearance"}, {"measurement": "MIC against ST", "setting": "[1]; No treatment", "value": 18, "unit": "mM"}, {"measurement": "Relative importance of N, P, E and R in P1", "setting": "APEC [2]", "value": "> 50", "unit": "%"}, {"measurement": "Relative importance of R at position 4 in P1", "setting": "APEC [2]", "value": 16, "unit": "%"}, {"measurement": "Relative importance of R at position 7 in P1", "setting": "APEC [2]", "value": 59.1, "unit": "%"}, {"measurement": "Relative importance of R at position 8 in P1", "setting": "APEC [2]", "value": 59.7, "unit": "%"}, {"measurement": "Relative importance of S and Q in P1", "setting": "APEC [2]", "value": "< 45", "unit": "%"}, {"measurement": "Relative Abundance (%) Acinetobacter", "setting": "cecal microbiota", "value": 0.00, "unit": "%"}, {"measurement": "Relative Abundance (%) Enterobacteriaceae (unidentified)", "setting": "cecal microbiota", "value": 6.26, "unit": "%"}, {"measurement": "Relative Abundance (%) Epulopiscium", "setting": "cecal microbiota", "value": 0.00, "unit": "%"}, {"measurement": "Relative Abundance (%) Lachnospiraceae (unidentified)", "setting": "cecal microbiota", "value": 34.16, "unit": "%"}, {"measurement": "Relative Abundance (%) Lachnospiraceae NK4A136 group", "setting": "cecal microbiota", "value": 0.98, "unit": "%"}, {"measurement": "Relative abundance (%) Anaerotruncus", "setting": "cecal microbiota", "value": 0.00, "unit": "%"}, {"measurement": "Relative abundance (%) Blautia", "setting": "cecal microbiota", "value": 0.00, "unit": "%"}, {"measurement": "Relative abundance (%) Caproiciproducens", "setting": "cecal microbiota", "value": 0.00, "unit": "%"}, {"measurement": "Relative abundance (%) Clostridium innocuum group", "setting": "cecal microbiota", "value": 0.00, "unit": "%"}, {"measurement": "Relative abundance (%) Clostridium sensu stricto 1", "setting": "cecal microbiota", "value": 0.00, "unit": "%"}, {"measurement": "Relative abundance (%) Enterococcus", "setting": "cecal microbiota", "value": 3.32, "unit": "%"}, {"measurement": "Relative abundance (%) Erysipelatoclostridium", "setting": "cecal microbiota", "value": 15.34, "unit": "%"}, {"measurement": "Relative abundance (%) Eubacterium coprostanoligenes group", "setting": "cecal microbiota", "value": 0.00, "unit": "%"}, {"measurement": "Relative abundance (%) Flavonifractor", "setting": "cecal microbiota", "value": 4.40, "unit": "%"}, {"measurement": "Relative abundance (%) Lachnospiraceae (uncultured)", "setting": "cecal microbiota", "value": 8.62, "unit": "%"}, {"measurement": "Relative abundance (%) Lactobacillus", "setting": "cecal microbiota", "value": 7.00, "unit": "%"}, {"measurement": "Relative abundance (%) Oscillibacter", "setting": "cecal microbiota", "value": 2.62, "unit": "%"}, {"measurement": "Relative abundance (%) Pediococcus", "setting": "cecal microbiota", "value": 0.00, "unit": "%"}, {"measurement": "Relative abundance (%) Ruminiclostridium 5", "setting": "cecal microbiota", "value": 0.00, "unit": "%"}, {"measurement": "Relative abundance (%) Ruminiclostridium 9", "setting": "cecal microbiota", "value": "0.00† %"}, {"measurement": "Relative abundance (%) Ruminococcus torques group", "setting": "cecal microbiota", "value": 9.83, "unit": "%"}, {"measurement": "Relative abundance (%) Sellimonas", "setting": "cecal microbiota", "value": 2.68, "unit": "%"}]}
